Structures were worked out from names or drawings and are uncertain.
Biological target: His-tagged TDG protein (Homo sapiens, UniProt Q13569)
Test: HTRF assay: inhibition of the binding of TDG to double-stranded DNA substrates
Details: read-out: Activity, IC50 class, TDG 40 nM, Biotin-labeled dsDNA substrate 40 nM, 4PL fit
Experimental: HTRF (Homogeneous Time-Resolved Fluorescence) technology was used to evaluate the inhibitory effects of the compounds on the binding of TDG to double-stranded DNA substrates.
Microplate reader (manufacturer: Perkin Elmer; model: Envision multilabel reader equipped with HTRF module) and Echo 550 (manufacturer: Labcyte; model: Echo 550).
• 1. Preparation of compound concentration gradient: Test compounds were prepared at a starting concentration of 250 µM, with 3-fold serial dilution, 10 concentrations, and duplicate wells. In a 384-well plate, the compounds were gradient-diluted to 40× final concentration solutions at 10 different concentrations. Then 500 nl was transferred to a 384-well reaction plate using Echo 550 for later use. To the negative control wells and positive control wells, 500 nl of 100% DMSO or Biotin-unlabeled dsDNA substrate was added, respectively. • 2. Add 1.5 µl/well of Epigeneous Binding Domain diluent buffer to the 384-well plate, and centrifuge at 1000 rpm for 1 min. • 3. Add 4 µl of 5× final concentration of His-tagged TDG protein (final concentration 40 nM, diluted with Epigeneous Binding Domain diluent buffer) to the 384-well plate, centrifuge at 1000 rpm for 1 min, and incubate at room temperature for 10 min. • 4. […]
Incubate overnight at 4 °C, and read HTRF on the microplate reader. […]

By UniProt entry, the sequences of proteins in these tests, tags left out.
UniProt Q13569, whole entry: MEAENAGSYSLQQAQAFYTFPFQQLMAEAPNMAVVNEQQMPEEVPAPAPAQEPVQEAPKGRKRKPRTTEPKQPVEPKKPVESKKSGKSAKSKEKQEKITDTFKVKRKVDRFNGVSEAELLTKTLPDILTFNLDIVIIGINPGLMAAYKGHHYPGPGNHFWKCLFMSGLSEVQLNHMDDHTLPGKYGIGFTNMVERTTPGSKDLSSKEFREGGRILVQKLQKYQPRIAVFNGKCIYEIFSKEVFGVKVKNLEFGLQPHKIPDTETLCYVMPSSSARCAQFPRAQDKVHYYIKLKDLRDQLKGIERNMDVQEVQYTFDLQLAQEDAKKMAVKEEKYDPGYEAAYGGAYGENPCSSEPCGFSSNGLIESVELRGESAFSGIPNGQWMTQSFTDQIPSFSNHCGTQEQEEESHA

| IC50 [µM] | Compound |
| --- | --- |
| < 0.5 | CC(=O)Oc1cc(Cl)c(C2CCC(=O)O2)c2ccccc12 (centres unmarked) |
| > 50 | O=C1CCC(c2c(Br)cc(O)cc2Br)O1 (centres unmarked) |
